Some of the results follow.
Experiments:
Assay in all cases: log2 fold change, soluble protein after heating vs DMSO (PISA); higher = thermal stabilisation; K562 cells, 10 uM, 30 min; active = over 0.2 and 3.5 SD of the protein, either way, in both replicates (recomputed)
[1] = compound: NCC(=O)Nc1ccc(-n2nc(C(F)(F)F)cc2-c2ccc3c(ccc4ccccc43)c2)cc1
Method in brief: (§1)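 K562 cells at 2×10^6 cells/mL were treated for 30 min with 10 μM compound, and aliquots were heated for 3 min over 48°C-58°C before pooling. Extraction used PBS with 0.5% NP-40 at 4°C, and soluble protein was the supernatant after 21,000xg for 90 min, measured by TMTpro 16plex LC-MS/MS with channel sums equalised. Thermal stability values, relative to control samples and from duplicates, are log2 fold changes.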

Sequences of proteins named here, by UniProt entry; tags and fusion partners are left off. A change or cut given only in a name is not applied to a line headed by its entry.
UniProt P62068, whole entry, looked up: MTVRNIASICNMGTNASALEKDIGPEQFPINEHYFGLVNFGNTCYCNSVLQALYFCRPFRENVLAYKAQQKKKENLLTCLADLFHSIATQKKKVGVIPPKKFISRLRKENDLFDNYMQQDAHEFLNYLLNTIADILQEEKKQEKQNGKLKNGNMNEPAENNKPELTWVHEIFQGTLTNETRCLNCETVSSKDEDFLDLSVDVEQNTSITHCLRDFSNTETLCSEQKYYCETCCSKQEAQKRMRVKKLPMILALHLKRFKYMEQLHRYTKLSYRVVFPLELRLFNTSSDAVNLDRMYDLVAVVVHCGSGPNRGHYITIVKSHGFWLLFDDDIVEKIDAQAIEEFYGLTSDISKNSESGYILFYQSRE
UniProt Q6UW78: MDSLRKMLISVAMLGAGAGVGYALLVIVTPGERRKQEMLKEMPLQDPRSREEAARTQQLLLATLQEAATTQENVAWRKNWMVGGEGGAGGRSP
UniProt O75317, whole entry, looked up: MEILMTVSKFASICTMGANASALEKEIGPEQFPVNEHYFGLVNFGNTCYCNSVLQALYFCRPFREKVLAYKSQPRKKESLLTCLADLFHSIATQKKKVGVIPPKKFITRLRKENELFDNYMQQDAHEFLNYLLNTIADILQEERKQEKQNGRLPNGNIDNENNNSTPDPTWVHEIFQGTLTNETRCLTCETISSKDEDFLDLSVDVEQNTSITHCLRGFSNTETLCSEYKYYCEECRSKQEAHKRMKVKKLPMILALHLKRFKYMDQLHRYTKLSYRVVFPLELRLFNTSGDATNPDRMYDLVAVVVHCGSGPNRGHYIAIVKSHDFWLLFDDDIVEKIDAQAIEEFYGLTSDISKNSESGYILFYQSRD
UniProt Q96LJ8: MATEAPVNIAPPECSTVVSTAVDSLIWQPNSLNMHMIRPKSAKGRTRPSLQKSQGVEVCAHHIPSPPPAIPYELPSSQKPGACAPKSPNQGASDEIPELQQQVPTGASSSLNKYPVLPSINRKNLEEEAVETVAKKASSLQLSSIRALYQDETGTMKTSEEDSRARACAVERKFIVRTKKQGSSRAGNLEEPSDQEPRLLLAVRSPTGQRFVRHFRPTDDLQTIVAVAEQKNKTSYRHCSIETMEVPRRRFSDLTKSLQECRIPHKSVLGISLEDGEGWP
UniProt Q15836, whole entry, looked up: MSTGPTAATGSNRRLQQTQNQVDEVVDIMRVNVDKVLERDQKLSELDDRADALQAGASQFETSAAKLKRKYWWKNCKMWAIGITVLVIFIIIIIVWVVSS
UniProt Q92738: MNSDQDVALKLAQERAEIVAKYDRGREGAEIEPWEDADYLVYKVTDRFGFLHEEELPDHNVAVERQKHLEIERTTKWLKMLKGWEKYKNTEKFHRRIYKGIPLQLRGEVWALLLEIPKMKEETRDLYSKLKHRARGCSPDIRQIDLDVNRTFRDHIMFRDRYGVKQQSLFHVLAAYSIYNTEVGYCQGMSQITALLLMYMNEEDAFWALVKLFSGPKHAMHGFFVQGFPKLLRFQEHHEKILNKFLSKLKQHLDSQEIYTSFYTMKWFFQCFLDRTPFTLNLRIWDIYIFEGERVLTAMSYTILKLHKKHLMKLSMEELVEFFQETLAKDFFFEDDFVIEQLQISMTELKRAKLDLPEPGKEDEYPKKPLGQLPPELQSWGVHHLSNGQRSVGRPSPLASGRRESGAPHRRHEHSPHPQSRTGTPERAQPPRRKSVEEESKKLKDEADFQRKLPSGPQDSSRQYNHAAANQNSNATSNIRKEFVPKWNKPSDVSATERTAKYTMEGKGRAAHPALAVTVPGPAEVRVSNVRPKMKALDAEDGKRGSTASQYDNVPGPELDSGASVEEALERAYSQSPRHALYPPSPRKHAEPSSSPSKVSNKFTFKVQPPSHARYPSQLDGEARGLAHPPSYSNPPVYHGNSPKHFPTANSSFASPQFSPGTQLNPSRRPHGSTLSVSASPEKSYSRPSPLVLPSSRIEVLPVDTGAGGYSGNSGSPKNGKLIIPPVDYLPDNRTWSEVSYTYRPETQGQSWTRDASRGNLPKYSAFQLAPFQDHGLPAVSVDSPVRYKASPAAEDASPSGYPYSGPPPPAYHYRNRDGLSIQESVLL
UniProt O14957: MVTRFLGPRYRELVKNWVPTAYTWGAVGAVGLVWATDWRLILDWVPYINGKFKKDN
UniProt Q9UMX0, whole entry, looked up: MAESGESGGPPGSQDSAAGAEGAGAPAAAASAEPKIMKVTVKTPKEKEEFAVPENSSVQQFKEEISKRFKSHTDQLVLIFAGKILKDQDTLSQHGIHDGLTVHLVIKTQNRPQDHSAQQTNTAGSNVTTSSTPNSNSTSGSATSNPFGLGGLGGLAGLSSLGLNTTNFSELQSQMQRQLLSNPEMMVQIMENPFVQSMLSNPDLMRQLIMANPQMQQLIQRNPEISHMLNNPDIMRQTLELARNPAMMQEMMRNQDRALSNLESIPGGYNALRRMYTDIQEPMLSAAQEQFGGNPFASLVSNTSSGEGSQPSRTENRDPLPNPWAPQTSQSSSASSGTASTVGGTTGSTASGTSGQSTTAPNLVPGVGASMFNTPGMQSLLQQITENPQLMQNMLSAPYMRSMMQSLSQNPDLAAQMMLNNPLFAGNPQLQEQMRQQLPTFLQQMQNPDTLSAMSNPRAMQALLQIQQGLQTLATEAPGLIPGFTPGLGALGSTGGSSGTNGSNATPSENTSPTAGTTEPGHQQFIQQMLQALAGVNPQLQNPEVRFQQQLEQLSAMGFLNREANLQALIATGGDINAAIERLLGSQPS
UniProt C9J7I0: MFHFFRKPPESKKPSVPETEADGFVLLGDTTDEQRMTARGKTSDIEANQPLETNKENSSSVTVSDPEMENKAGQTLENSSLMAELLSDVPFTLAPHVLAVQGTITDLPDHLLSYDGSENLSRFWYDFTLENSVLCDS
UniProt Q9BZM5, whole entry, looked up: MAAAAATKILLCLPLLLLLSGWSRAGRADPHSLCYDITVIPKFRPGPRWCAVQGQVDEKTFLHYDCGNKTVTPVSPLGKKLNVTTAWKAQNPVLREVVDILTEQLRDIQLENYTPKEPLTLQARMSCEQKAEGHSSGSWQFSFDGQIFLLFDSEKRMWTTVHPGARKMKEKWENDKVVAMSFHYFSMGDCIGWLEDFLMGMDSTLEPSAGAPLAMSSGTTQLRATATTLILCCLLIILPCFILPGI
UniProt Q9H1J1: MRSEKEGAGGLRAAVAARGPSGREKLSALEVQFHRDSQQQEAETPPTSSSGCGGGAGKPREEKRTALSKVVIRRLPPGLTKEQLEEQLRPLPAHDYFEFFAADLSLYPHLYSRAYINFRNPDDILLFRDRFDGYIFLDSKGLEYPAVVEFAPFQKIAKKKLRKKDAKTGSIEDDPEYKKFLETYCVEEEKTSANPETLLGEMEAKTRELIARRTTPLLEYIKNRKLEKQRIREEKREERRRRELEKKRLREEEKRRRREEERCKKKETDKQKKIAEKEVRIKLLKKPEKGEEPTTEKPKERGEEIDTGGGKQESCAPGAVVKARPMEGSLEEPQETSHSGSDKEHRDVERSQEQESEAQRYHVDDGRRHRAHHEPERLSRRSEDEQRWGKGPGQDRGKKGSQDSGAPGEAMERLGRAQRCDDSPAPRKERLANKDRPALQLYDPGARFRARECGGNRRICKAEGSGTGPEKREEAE
UniProt O94782: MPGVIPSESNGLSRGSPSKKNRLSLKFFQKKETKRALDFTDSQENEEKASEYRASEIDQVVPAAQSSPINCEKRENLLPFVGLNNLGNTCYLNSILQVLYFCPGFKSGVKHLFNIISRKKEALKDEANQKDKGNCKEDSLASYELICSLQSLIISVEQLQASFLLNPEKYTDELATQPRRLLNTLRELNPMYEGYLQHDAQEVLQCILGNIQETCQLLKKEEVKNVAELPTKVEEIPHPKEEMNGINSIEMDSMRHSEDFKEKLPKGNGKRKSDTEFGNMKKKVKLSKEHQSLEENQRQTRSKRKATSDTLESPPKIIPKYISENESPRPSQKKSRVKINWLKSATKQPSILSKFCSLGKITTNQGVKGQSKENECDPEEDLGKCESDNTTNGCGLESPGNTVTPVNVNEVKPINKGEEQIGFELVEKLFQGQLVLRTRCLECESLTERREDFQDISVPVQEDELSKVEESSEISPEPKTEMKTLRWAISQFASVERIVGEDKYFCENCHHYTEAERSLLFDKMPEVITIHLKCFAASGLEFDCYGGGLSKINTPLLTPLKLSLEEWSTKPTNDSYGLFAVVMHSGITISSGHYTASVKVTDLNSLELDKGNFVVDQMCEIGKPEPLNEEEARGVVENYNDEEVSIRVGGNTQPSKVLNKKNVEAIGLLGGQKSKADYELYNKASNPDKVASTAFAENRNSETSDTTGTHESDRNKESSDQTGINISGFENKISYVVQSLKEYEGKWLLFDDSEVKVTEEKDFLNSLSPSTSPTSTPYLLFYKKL
UniProt Q68DE3: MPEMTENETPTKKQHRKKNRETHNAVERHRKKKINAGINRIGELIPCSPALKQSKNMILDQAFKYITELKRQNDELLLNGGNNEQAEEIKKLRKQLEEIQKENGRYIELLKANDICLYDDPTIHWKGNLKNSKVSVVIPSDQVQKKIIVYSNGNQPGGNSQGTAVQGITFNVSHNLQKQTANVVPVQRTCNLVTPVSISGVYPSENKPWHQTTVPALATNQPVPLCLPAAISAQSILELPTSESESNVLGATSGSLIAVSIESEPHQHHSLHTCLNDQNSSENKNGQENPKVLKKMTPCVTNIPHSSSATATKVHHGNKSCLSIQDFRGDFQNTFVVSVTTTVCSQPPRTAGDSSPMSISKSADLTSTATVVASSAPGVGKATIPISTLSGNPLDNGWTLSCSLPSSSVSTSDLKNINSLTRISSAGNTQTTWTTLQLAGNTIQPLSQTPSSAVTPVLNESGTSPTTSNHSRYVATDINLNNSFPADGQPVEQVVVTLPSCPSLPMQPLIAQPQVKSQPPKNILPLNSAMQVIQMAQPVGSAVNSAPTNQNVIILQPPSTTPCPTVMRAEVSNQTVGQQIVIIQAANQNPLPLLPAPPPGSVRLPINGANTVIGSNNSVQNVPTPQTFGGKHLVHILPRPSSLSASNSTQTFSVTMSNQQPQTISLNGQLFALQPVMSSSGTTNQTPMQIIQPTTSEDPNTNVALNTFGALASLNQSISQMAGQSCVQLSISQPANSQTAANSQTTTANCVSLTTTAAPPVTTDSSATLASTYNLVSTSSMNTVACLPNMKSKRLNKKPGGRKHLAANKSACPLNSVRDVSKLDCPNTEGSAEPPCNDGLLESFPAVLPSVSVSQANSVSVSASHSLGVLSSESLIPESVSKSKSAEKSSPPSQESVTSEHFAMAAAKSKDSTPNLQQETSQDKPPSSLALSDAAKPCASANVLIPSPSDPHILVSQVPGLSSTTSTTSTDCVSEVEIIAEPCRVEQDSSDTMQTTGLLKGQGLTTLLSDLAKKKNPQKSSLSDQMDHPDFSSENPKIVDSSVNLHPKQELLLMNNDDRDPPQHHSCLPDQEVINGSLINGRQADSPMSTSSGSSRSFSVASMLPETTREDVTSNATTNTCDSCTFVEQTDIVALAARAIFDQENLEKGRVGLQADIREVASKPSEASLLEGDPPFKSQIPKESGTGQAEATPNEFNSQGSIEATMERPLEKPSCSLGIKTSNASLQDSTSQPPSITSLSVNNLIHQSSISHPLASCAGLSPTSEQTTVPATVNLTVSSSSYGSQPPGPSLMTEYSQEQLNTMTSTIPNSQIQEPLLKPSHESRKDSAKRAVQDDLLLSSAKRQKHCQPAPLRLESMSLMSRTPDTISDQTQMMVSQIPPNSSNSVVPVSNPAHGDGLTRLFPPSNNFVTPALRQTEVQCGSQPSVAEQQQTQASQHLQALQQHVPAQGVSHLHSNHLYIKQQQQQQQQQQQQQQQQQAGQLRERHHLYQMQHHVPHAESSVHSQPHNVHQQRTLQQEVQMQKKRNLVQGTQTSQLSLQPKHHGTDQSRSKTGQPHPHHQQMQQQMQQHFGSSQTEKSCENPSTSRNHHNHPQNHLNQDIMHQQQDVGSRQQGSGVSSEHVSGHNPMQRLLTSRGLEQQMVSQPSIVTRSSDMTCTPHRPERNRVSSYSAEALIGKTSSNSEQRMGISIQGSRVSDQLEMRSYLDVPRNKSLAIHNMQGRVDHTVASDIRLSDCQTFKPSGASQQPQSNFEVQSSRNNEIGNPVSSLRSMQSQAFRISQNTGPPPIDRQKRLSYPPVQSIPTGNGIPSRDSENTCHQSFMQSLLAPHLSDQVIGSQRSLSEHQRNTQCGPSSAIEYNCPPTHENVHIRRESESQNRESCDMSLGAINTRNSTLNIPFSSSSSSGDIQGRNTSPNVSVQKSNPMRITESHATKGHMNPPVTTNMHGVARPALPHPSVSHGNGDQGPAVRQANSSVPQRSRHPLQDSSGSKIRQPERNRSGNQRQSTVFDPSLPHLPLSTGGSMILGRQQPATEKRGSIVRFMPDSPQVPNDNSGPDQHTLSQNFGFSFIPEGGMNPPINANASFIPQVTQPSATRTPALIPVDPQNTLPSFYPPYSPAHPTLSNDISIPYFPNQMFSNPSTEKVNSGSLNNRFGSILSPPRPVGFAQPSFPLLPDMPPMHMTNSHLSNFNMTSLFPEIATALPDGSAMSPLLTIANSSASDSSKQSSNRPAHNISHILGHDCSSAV

[2] = compound: NC(=O)c1cnc(N[C@@H]2CCCC[C@@H]2N)nc1Nc1cccc(-n2nccn2)c1
Method in brief: as §1

[3] = compound: NC1(c2ccc(-c3nc4ccn5c(=O)[nH]nc5c4cc3-c3ccccc3)cc2)CCC1
Method in brief: as §1

vorinostat = compound: O=C(CCCCCCC(=O)Nc1ccccc1)NO [vorinostat]
Method in brief: as §1

silmitasertib = compound: O=C(O)c1ccc2c(c1)nc(Nc1cccc(Cl)c1)c1ccncc12 [silmitasertib]
Method in brief: as §1

[4] = compound: O=C1NC(=O)C(c2cnc3ccccn23)=C1c1cn2c3c(cc(F)cc13)CN(C(=O)N1CCCCC1)CC2
Method in brief: as §1

[5] = compound: NC(=O)Nc1cc(-c2cccc(F)c2)sc1C(=O)N[C@H]1CCCNC1
Method in brief: as §1

entinostat = compound: Nc1ccccc1NC(=O)c1ccc(CNC(=O)OCc2cccnc2)cc1 [entinostat]
Method in brief: as §1

citarinostat = compound: O=C(CCCCCCNC(=O)c1cnc(N(c2ccccc2)c2ccccc2Cl)nc1)NO [citarinostat]
Method in brief: as §1

[6] = compound: c1cc(OCCN2CCCCC2)cc(-c2n[nH]c3ccc(-c4nnc[nH]4)cc23)c1
Method in brief: as §1

Target: UBN2 (UniProt Q6ZU65)
- log2 fold change [1]: inactive: -0.048

Target: USP16 (UniProt Q9Y5T5)
- log2 fold change [2]: inactive: -0.084
- log2 fold change [3]: inactive: 0.191
- log2 fold change [1]: inactive: -0.047
- log2 fold change (vorinostat): inactive: 0.103
- log2 fold change (silmitasertib): inactive: 0.135
- log2 fold change [4]: inactive: 0.224

Target: VASN (UniProt Q6EMK4)
- log2 fold change [5]: inactive: -0.069
- log2 fold change [1]: inactive: 0.102
- log2 fold change (entinostat): inactive: -0.172
- log2 fold change [4]: inactive: -0.079

Target: UTP20 (UniProt O75691)
- log2 fold change [4]: inactive: 0.009

Target: USP46 (UniProt P62068)
- log2 fold change [5]: inactive: -0.081
- log2 fold change [1]: inactive: 0.041
- log2 fold change (entinostat): inactive: -0.013
- log2 fold change [4]: inactive: 0.18

Target: UQCC3 (UniProt Q6UW78)
- log2 fold change (vorinostat): inactive: -0.216
- log2 fold change [4]: inactive: -0.125

Target: URB2 (UniProt Q14146)
- log2 fold change [2]: inactive: -0.025

Target: UCHL1 (UniProt P09936)
- log2 fold change (vorinostat): inactive: 0.15

Target: URGCP (UniProt Q8TCY9)
- log2 fold change [5]: inactive: 0.01
- log2 fold change [2]: inactive: -0.024
- log2 fold change [1]: inactive: 0.014
- log2 fold change (entinostat): inactive: -0.115
- log2 fold change (vorinostat): inactive: 0.08
- log2 fold change [4]: inactive: -0.104

Target: USP33 (UniProt Q8TEY7)
- log2 fold change [5]: inactive: 0.056
- log2 fold change [2]: inactive: 0.257
- log2 fold change [1]: inactive: -0.221
- log2 fold change (entinostat): inactive: 0.006

Target: USP12 (UniProt O75317)
- log2 fold change [2]: inactive: -0.043
- log2 fold change [3]: inactive: -0.299
- log2 fold change [1]: inactive: 0.002
- log2 fold change (vorinostat): inactive: -0.113
- log2 fold change (citarinostat): inactive: -0.001
- log2 fold change (silmitasertib): inactive: -0.043
- log2 fold change [6]: inactive: 0.102

Target: ULK3 isoform 4 (UniProt Q6PHR2)
- log2 fold change [5]: inactive: -0.543
- log2 fold change (entinostat): inactive: 0.169
- log2 fold change (vorinostat): inactive: 0.17
- log2 fold change (citarinostat): inactive: 0.025
- log2 fold change [4]: inactive: -0.051
- log2 fold change [6]: inactive: -0.044

Target: UBXN10 (UniProt Q96LJ8)
- log2 fold change [5]: inactive: 0.062
- log2 fold change [3]: inactive: 0.102
- log2 fold change [1]: active: -0.426
- log2 fold change (entinostat): inactive: -0.069
- log2 fold change (vorinostat): inactive: 0.136
- log2 fold change (citarinostat): inactive: -0.121
- log2 fold change (silmitasertib): inactive: -0.006
- log2 fold change [4]: inactive: -0.031
- log2 fold change [6]: inactive: 0.037

Target: VAMP3 (UniProt Q15836)
- log2 fold change [3]: inactive: -0.059
- log2 fold change (silmitasertib): inactive: 0
- log2 fold change [4]: inactive: -0.03

Target: UTP14C (UniProt Q5TAP6)
- log2 fold change [5]: inactive: 0.059
- log2 fold change (entinostat): inactive: -0.074
- log2 fold change [4]: inactive: 0.003

Target: USP6NL isoform 2 (UniProt Q92738)
- log2 fold change [5]: inactive: -0.039
- log2 fold change [2]: inactive: 0.078
- log2 fold change [1]: inactive: -0.026
- log2 fold change (entinostat): inactive: -0.09
- log2 fold change (citarinostat): inactive: 0.097
- log2 fold change [4]: inactive: 0.077
- log2 fold change [6]: inactive: 0.051

Target: USP32 (UniProt Q8NFA0)
- log2 fold change [5]: inactive: -0.025
- log2 fold change [2]: inactive: -0.061
- log2 fold change (entinostat): inactive: -0.066
- log2 fold change (vorinostat): inactive: 0.14
- log2 fold change [4]: inactive: -0.026

Target: USP54 (UniProt Q70EL1)
- log2 fold change [3]: inactive: -0.14
- log2 fold change [1]: inactive: 0.004
- log2 fold change (vorinostat): inactive: 0.242
- log2 fold change (silmitasertib): inactive: 0.016

Target: UBP1 (UniProt Q9NZI7)
- log2 fold change [5]: inactive: 0.035
- log2 fold change [3]: inactive: -0.071
- log2 fold change [1]: inactive: -0.054
- log2 fold change (entinostat): inactive: -0.074
- log2 fold change (silmitasertib): inactive: 0.016
- log2 fold change [4]: inactive: 0.33

Target: URI1 isoform 4 (UniProt O94763)
- log2 fold change [5]: inactive: 0.08
- log2 fold change [2]: inactive: 0
- log2 fold change [1]: inactive: 0.045
- log2 fold change (entinostat): inactive: -0.016
- log2 fold change (vorinostat): inactive: -0.059
- log2 fold change (citarinostat): inactive: 0.033
- log2 fold change [4]: inactive: 0.393
- log2 fold change [6]: inactive: -0.168

Target: USP48 (UniProt Q86UV5)
- log2 fold change [5]: inactive: -0.077
- log2 fold change [3]: inactive: -0.242
- log2 fold change (entinostat): inactive: 0.164
- log2 fold change (citarinostat): inactive: -0.024
- log2 fold change (silmitasertib): inactive: 0.185
- log2 fold change [6]: inactive: 0.076

Target: UBR3 isoform 4 (UniProt Q6ZT12)
- log2 fold change [5]: inactive: -0.119
- log2 fold change [1]: inactive: -0.009
- log2 fold change (entinostat): inactive: 0.21
- log2 fold change (citarinostat): inactive: 0.092
- log2 fold change [4]: inactive: -0.037
- log2 fold change [6]: inactive: -0.351

Target: UQCR11 (UniProt O14957)
- log2 fold change [2]: inactive: -0.007
- log2 fold change [3]: inactive: -0.017
- log2 fold change (vorinostat): inactive: -0.084
- log2 fold change (silmitasertib): inactive: -0.204

Target: USP11 (UniProt P51784)
- log2 fold change [5]: inactive: -0.031
- log2 fold change [3]: inactive: 0.333
- log2 fold change (entinostat): inactive: 0.065
- log2 fold change (vorinostat): inactive: 0.227
- log2 fold change (silmitasertib): inactive: 0.153
- log2 fold change [4]: inactive: 0.311

Target: UBXN8 (UniProt O00124)
- log2 fold change [5]: inactive: -0.139
- log2 fold change [2]: inactive: -0.103
- log2 fold change [1]: inactive: -0.344
- log2 fold change (entinostat): inactive: 0.046
- log2 fold change (vorinostat): inactive: -0.055
- log2 fold change (citarinostat): inactive: 0.037
- log2 fold change [4]: inactive: -0.05
- log2 fold change [6]: inactive: -0.143

Target: UBQLN1 isoform 2 (UniProt Q9UMX0)
- log2 fold change [3]: inactive: 0.13
- log2 fold change (silmitasertib): inactive: -0.124

Target: UMAD1 (UniProt C9J7I0)
- log2 fold change [3]: inactive: -0.097
- log2 fold change (vorinostat): inactive: -0.186
- log2 fold change (citarinostat): inactive: 0.031
- log2 fold change (silmitasertib): inactive: 0.056
- log2 fold change [6]: inactive: 0.077

Target: UTP18 (UniProt Q9Y5J1)
- log2 fold change [5]: inactive: 0.037
- log2 fold change (entinostat): inactive: -0.192
- log2 fold change (vorinostat): inactive: 0.031
- log2 fold change (citarinostat): inactive: -0.115
- log2 fold change [4]: inactive: 0.12
- log2 fold change [6]: inactive: -0.1

Target: USP27X (UniProt A6NNY8)
- log2 fold change [2]: inactive: -0.253
- log2 fold change [4]: inactive: -0.026

Target: ULBP2 (UniProt Q9BZM5)
- log2 fold change [5]: inactive: 0.009
- log2 fold change [3]: inactive: -0.113
- log2 fold change (entinostat): inactive: -0.027
- log2 fold change (citarinostat): inactive: -0.012
- log2 fold change (silmitasertib): inactive: -0.061
- log2 fold change [4]: inactive: 0.114
- log2 fold change [6]: inactive: -0.2

Target: USB1 (UniProt Q9BQ65)
- log2 fold change [1]: inactive: -0.006
- log2 fold change (vorinostat): inactive: 0.095

Target: UPF3A (UniProt Q9H1J1)
- log2 fold change [5]: inactive: 0.135
- log2 fold change (entinostat): inactive: -0.339
- log2 fold change (citarinostat): inactive: -0.154
- log2 fold change [4]: inactive: 0.091
- log2 fold change [6]: inactive: -0.106

Target: USP1 (UniProt O94782)
- log2 fold change [5]: inactive: 0.024
- log2 fold change [2]: inactive: 0.186
- log2 fold change [1]: inactive: -0.014
- log2 fold change (entinostat): inactive: 0.281
- log2 fold change (citarinostat): inactive: 0.036
- log2 fold change [4]: inactive: 0.114
- log2 fold change [6]: inactive: -0.107

Target: USF3 (UniProt Q68DE3)
- log2 fold change [5]: inactive: -0.193
- log2 fold change [3]: inactive: -0.227
- log2 fold change [1]: inactive: -0.243
- log2 fold change (entinostat): inactive: -0.068
- log2 fold change (citarinostat): inactive: -0.242
- log2 fold change (silmitasertib): inactive: 0.186
- log2 fold change [4]: inactive: -0.239
- log2 fold change [6]: inactive: -0.28
